No constants are given. Whether binding was seen depends on the method and setting. For some of these results: In cells and extracts the contact can be indirect. Some entries that bind do so weakly or less than the wild type. For some of these results: Tags and fused reporters may be left off the sequences shown.
What was measured:
[1] = target: T1, GST-golgin-160(1-393) (UniProt Q08378); test: pull-down; 10 μg GST-golgin-160(1-393) pre-conjugated to glutathione-Sepharose 4B beads; detergent lysate of transfected HeLa cells (125 mM potassium acetate, 25 mM HEPES pH 7.1, 1 mM DTT, 1% NP-40), 2 h at 4 °C; anti-FLAG immunoblot, normalised to input; only the target purified
T1 sequence: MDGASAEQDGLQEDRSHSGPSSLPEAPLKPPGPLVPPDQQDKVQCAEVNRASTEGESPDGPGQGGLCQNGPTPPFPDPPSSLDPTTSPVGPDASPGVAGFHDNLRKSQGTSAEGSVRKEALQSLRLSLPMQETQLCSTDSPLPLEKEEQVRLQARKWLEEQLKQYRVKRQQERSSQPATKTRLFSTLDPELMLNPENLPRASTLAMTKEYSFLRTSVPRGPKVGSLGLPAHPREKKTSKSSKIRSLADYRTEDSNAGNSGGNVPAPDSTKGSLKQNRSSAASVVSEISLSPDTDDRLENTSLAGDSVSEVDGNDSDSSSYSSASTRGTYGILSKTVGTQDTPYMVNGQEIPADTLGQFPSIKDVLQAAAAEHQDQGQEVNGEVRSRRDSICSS

By UniProt entry, the sequences of proteins in these tests, tags left out. Where a name states a change or a piece, a line headed by the entry shows the natural chain unless it says otherwise. Chains listed by the source or under a name are the forms on record and can include a tag or linker. Residues count along the entry.
UniProt P08588: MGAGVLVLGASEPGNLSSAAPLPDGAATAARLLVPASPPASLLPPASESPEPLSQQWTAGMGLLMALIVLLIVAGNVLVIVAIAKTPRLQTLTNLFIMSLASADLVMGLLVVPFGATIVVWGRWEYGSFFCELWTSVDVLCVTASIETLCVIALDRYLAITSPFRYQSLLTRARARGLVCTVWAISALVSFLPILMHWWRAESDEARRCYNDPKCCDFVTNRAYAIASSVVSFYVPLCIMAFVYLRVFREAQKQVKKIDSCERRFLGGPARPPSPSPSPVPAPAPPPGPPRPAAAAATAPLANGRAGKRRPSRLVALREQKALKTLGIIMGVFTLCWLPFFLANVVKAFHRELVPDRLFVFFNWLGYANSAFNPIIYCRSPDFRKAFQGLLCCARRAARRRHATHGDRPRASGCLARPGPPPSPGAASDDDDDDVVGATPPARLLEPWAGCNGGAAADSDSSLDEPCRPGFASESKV
GST-β1AR L3 (third intracellular loop, residues 249 to 325): residues 249-325 of P08588
GST-β1AR L3 C-terminus (residues 288 to 325): residues 288-325 of P08588
GST-β1AR L3-CT/3A (residues 288 to 325 with K308RR310 changed to AAA) (P08588, form named): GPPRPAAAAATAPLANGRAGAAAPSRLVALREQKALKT

[2] = target: GST-β1AR L3 (third intracellular loop, residues 249 to 325) (human) (UniProt P08588); test: pull-down; purified GST-β1AR L3 (5 μg) pre-bound to glutathione-Sepharose 4B beads; purified untagged golgin-160(1-393) added in elution buffer (20 mM HEPES pH 8.5, 500 mM NaCl, 1 mM EDTA, 50 mM DTT), 4-6 h at 4 °C; Coomassie blue staining after SDS-PAGE; both purified
[3] = target: GST-β1AR L3 C-terminus (residues 288 to 325) (human) (UniProt P08588); test: pull-down; purified GST fusions (3 μg) pre-bound to glutathione-Sepharose beads; IVTT [35S]-labeled golgin-160(1-393) in 25 mM HEPES, 125 mM KOAc, 5 mM EDTA, 0.5% NP-40, 1 mM DTT, 2 h at 4 °C; phosphorimaging after SDS-PAGE; only the target purified
[4] = target: GST-β1AR L3-CT/3A (residues 288 to 325 with K308RR310 changed to AAA) (human) (UniProt P08588); test: as above

In the case of “full-length FLAG-tagged β1AR WT (from UniProt P08588 1-477) (receptor)”, the binding [1] is reported as “binds”.

B1: untagged, purified golgin-160(1-393) head domain (domain or fragment, UniProt Q08378 1-393)
chain: MDGASAEQDGLQEDRSHSGPSSLPEAPLKPPGPLVPPDQQDKVQCAEVNRASTEGESPDGPGQGGLCQNGPTPPFPDPPSSLDPTTSPVGPDASPGVAGFHDNLRKSQGTSAEGSVRKEALQSLRLSLPMQETQLCSTDSPLPLEKEEQVRLQARKWLEEQLKQYRVKRQQERSSQPATKTRLFSTLDPELMLNPENLPRASTLAMTKEYSFLRTSVPRGPKVGSLGLPAHPREKKTSKSSKIRSLADYRTEDSNAGNSGGNVPAPDSTKGSLKQNRSSAASVVSEISLSPDTDDRLENTSLAGDSVSEVDGNDSDSSSYSSASTRGTYGILSKTVGTQDTPYMVNGQEIPADTLGQFPSIKDVLQAAAAEHQDQGQEVNGEVRSRRDSICSS
With B1 the binding [2] was “binds”.

B2: in vitro transcribed and translated [35S]-labeled golgin-160(1-393) (domain or fragment, UniProt Q08378 1-393)
chain: MDGASAEQDGLQEDRSHSGPSSLPEAPLKPPGPLVPPDQQDKVQCAEVNRASTEGESPDGPGQGGLCQNGPTPPFPDPPSSLDPTTSPVGPDASPGVAGFHDNLRKSQGTSAEGSVRKEALQSLRLSLPMQETQLCSTDSPLPLEKEEQVRLQARKWLEEQLKQYRVKRQQERSSQPATKTRLFSTLDPELMLNPENLPRASTLAMTKEYSFLRTSVPRGPKVGSLGLPAHPREKKTSKSSKIRSLADYRTEDSNAGNSGGNVPAPDSTKGSLKQNRSSAASVVSEISLSPDTDDRLENTSLAGDSVSEVDGNDSDSSSYSSASTRGTYGILSKTVGTQDTPYMVNGQEIPADTLGQFPSIKDVLQAAAAEHQDQGQEVNGEVRSRRDSICSS
modifications: [35S]-labeled
For B2, the binding [3] was “binds” and the binding [4] was “no binding”.
